Earlier results in patent US20220016101A1 (ACADIA Pharmaceuticals Inc., priority 2018, published 2022).

Biological target: alpha1 adrenergic receptor
Settings: read-out: affinity (Ki) α1; other noteworthy target; literature sources; cited from earlier work

For O=c1n(CCCN2CCN(c3cccc(Cl)c3)CC2)nc2ccccn12 [TRAZ, trazodone], the Ki is given as 0.01 to 0.04 µM.
